# Test results published in patent US9926581B2, “Fagopyritol synthase genes and uses thereof” (Cornell Research Foundation, Inc., priority 2002, dated 2018).
# Where “and” joins values, the source holds several entries; their conditions need not be identical. Identical values can stand only once.
# Experiments:
# [1] = tested on: buckwheat explants; experiment: Buckwheat explant feeding with 100 mM cyclitol in 1% sucrose for 5 days, soluble carbohydrates in embryos and leaf disks; type: in vivo, Fagopyrum esculentum; details: for Soluble carbohydrates in embryos of seeds from buckwheat explants: replicate values
# [2] = tested on: soybean explants; experiment: Soybean explant feeding with 50 mM free cyclitols for one week, soluble carbohydrates in mature seeds; type: in vivo, Glycine max (L.) Merrill cv. Chippewa 64
# [3] = tested on: soybean explants; experiment: Soybean explant feeding 3 days with 50 mM cyclitol in 1% sucrose, slow drying time course, soluble carbohydrates in axis, cotyledon, seed coat and leaf
# [4] = 3 days transport of sucrose (1%) and D-chiro-inositol (50 mM), after 2 days slow drying, Rep 1
# [5] = 3 days transport of sucrose (1%) and D-chiro-inositol (50 mM), after 2 days slow drying, Rep 2
# [6] = 3 days transport of sucrose (1%) and D-chiro-inositol (50 mM), after 4 days slow drying, Rep 1
# [7] = 3 days transport of sucrose (1%) and D-chiro-inositol (50 mM), after 4 days slow drying, Rep 2
# [8] = 3 days transport of sucrose (1%) and D-chiro-inositol (50 mM), after 14 days slow drying, Rep 1
# [9] = 3 days transport of sucrose (1%) and D-chiro-inositol (50 mM), after 14 days slow drying, Rep 2
# [10] = 3 days transport of sucrose (1%) and D-chiro-inositol (50 mM), before slow drying, Rep 1
# [11] = 3 days transport of sucrose (1%) and D-chiro-inositol (50 mM), before slow drying, Rep 2
# [12] = 3 days transport of sucrose (1%) and D-pinitol (50 mM), after 2 days slow drying, Rep 1
# [13] = 3 days transport of sucrose (1%) and D-pinitol (50 mM), after 2 days slow drying, Rep 2
# [14] = 3 days transport of sucrose (1%) and D-pinitol (50 mM), after 4 days slow drying, Rep 1
structure (smiles),measurement,setting,value
"CO[C@H]1[C@H](O)[C@@H](O)[C@@H](O)[C@H](O)[C@@H]1O [D-Pinitol, 1D-3-O-methyl-chiro-inositol, reference compound]",Soluble carbohydrates in embryos of seeds from buckwheat explants,"[1]; fed 100 mM D-chiro-inositol in 1% sucrose solution 5 days, 2 days slow drying",0 μg/embryo
same,Soluble carbohydrates in embryos of seeds from buckwheat explants,"[1]; fed 100 mM D-chiro-inositol in 1% sucrose solution 5 days, 4 days slow drying",0 μg/embryo
same,Soluble carbohydrates in embryos of seeds from buckwheat explants,"[1]; fed 100 mM D-chiro-inositol in 1% sucrose solution 5 days, 7 days slow drying",0 μg/embryo
same,Soluble carbohydrates in leaves from buckwheat explants,"[1]; fed 100 mM D-chiro-inositol in 1% sucrose solution, after 1 hour feeding",0 μg/10 mg leaf disk
same,Soluble carbohydrates in embryos of seeds from buckwheat explants,"[1]; fed 100 mM D-chiro-inositol in 1% sucrose solution, after 1 day feeding",0 μg/embryo
same,Soluble carbohydrates in leaves from buckwheat explants,"[1]; fed 100 mM D-chiro-inositol in 1% sucrose solution, after 24 hours feeding",0 μg/10 mg leaf disk
same,Soluble carbohydrates in leaves from buckwheat explants,"[1]; fed 100 mM D-chiro-inositol in 1% sucrose solution, after 72 hours feeding",0 μg/10 mg leaf disk
same,Soluble carbohydrates in embryos of seeds from buckwheat explants,"[1]; fed 100 mM D-chiro-inositol in 1% sucrose solution, after 5 days feeding",0 μg/embryo
same,Soluble carbohydrates in embryos of seeds from buckwheat explants,"[1]; fed 100 mM D-pinitol in 1% sucrose solution 5 days, 2 days slow drying",163.47 μg/embryo and 56.90 μg/embryo and 230.83 μg/embryo
same,Soluble carbohydrates in embryos of seeds from buckwheat explants,"[1]; fed 100 mM D-pinitol in 1% sucrose solution 5 days, 4 days slow drying",162.97 μg/embryo and 173.51 μg/embryo and 134.07 μg/embryo
same,Soluble carbohydrates in embryos of seeds from buckwheat explants,"[1]; fed 100 mM D-pinitol in 1% sucrose solution 5 days, 7 days slow drying",85.34 μg/embryo and 129.52 μg/embryo and 148.04 μg/embryo
same,Soluble carbohydrates in leaves from buckwheat explants,"[1]; fed 100 mM D-pinitol in 1% sucrose solution, after 1 hour feeding",2.45 μg/10 mg leaf disk
same,Soluble carbohydrates in embryos of seeds from buckwheat explants,"[1]; fed 100 mM D-pinitol in 1% sucrose solution, after 1 day feeding",35.53 μg/embryo
same,Soluble carbohydrates in leaves from buckwheat explants,"[1]; fed 100 mM D-pinitol in 1% sucrose solution, after 24 hours feeding",121.45 μg/10 mg leaf disk
same,Soluble carbohydrates in leaves from buckwheat explants,"[1]; fed 100 mM D-pinitol in 1% sucrose solution, after 72 hours feeding",64.73 μg/10 mg leaf disk
same,Soluble carbohydrates in embryos of seeds from buckwheat explants,"[1]; fed 100 mM D-pinitol in 1% sucrose solution, after 5 days feeding",263.02 μg/embryo and 328.27 μg/embryo and 204.10 μg/embryo
same,Soluble carbohydrates in embryos of seeds from buckwheat explants,"[1]; fed 100 mM myo-inositol in 1% sucrose solution 5 days, 2 days slow drying",0 μg/embryo
same,Soluble carbohydrates in embryos of seeds from buckwheat explants,"[1]; fed 100 mM myo-inositol in 1% sucrose solution 5 days, 4 days slow drying",tr
same,Soluble carbohydrates in embryos of seeds from buckwheat explants,"[1]; fed 100 mM myo-inositol in 1% sucrose solution 5 days, 7 days slow drying",tr
same,Soluble carbohydrates in embryos of seeds from buckwheat explants,"[1]; fed 100 mM myo-inositol in 1% sucrose solution, after 1 day feeding",0 μg/embryo
same,Soluble carbohydrates in embryos of seeds from buckwheat explants,"[1]; fed 100 mM myo-inositol in 1% sucrose solution, after 5 days feeding",tr and 0 μg/embryo
same,Soluble carbohydrates in embryos of seeds from buckwheat explants,"[1]; fed 1% sucrose (without cyclitols) solution 5 days, 2 days slow drying",tr (2×) and 0 μg/embryo
same,Soluble carbohydrates in embryos of seeds from buckwheat explants,"[1]; fed 1% sucrose (without cyclitols) solution 5 days, 4 days slow drying",0 μg/embryo
same,Soluble carbohydrates in embryos of seeds from buckwheat explants,"[1]; fed 1% sucrose (without cyclitols) solution 5 days, 7 days slow drying",tr and 0 μg/embryo
same,Soluble carbohydrates in leaves from buckwheat explants,"[1]; fed 1% sucrose (without cyclitols) solution, after 1 hour feeding",0 μg/10 mg leaf disk
same,Soluble carbohydrates in leaves from buckwheat explants,"[1]; fed 1% sucrose (without cyclitols) solution, after 24 hours feeding",0 μg/10 mg leaf disk
same,Soluble carbohydrates in leaves from buckwheat explants,"[1]; fed 1% sucrose (without cyclitols) solution, after 72 hours feeding",0 μg/10 mg leaf disk
same,Soluble carbohydrates in embryos of seeds from buckwheat explants,"[1]; fed 1% sucrose (without cyclitols) solution, after 5 days feeding",tr and 0 μg/embryo
same,appearance of seeds of explants fed the cyclitol,"[2]; 50 mM cyclitol fed one week, seeds dried",full and round seeds
same,change in concentration after feeding 50 mM myo-inositol to explants,[2]; axis and cotyledon tissue of mature seeds,No significant changes
same,change after feeding D-pinitol to explants,[2]; both axis and cotyledon tissues,quadrupled
same,Accumulation of soluble carbohydrates in soybean axis,[3]; [4],6.18 μg/axis
same,Accumulation of soluble carbohydrates in soybean cotyledon,[3]; [4],140.00 μg/cotyledon
same,Accumulation of soluble carbohydrates in soybean seed coat,[3]; [4],6.55 μg/seed coat
same,Accumulation of soluble carbohydrates in soybean axis,[3]; [5],7.87 μg/axis
same,Accumulation of soluble carbohydrates in soybean cotyledon,[3]; [5],177.82 μg/cotyledon
same,Accumulation of soluble carbohydrates in soybean seed coat,[3]; [5],5.97 μg/seed coat
same,Accumulation of soluble carbohydrates in soybean axis,[3]; [6],6.21 μg/axis
same,Accumulation of soluble carbohydrates in soybean cotyledon,[3]; [6],131.32 μg/cotyledon
same,Accumulation of soluble carbohydrates in soybean seed coat,[3]; [6],14.69 μg/seed coat
same,Accumulation of soluble carbohydrates in soybean axis,[3]; [7],3.86 μg/axis
same,Accumulation of soluble carbohydrates in soybean cotyledon,[3]; [7],171.09 μg/cotyledon
same,Accumulation of soluble carbohydrates in soybean seed coat,[3]; [7],10.95 μg/seed coat
same,Accumulation of soluble carbohydrates in soybean axis,[3]; [8],7.68 μg/axis
same,Accumulation of soluble carbohydrates in soybean cotyledon,[3]; [8],91.50 μg/cotyledon
same,Accumulation of soluble carbohydrates in soybean seed coat,[3]; [8],12.79 μg/seed coat
same,Accumulation of soluble carbohydrates in soybean axis,[3]; [9],4.13 μg/axis
same,Accumulation of soluble carbohydrates in soybean cotyledon,[3]; [9],90.76 μg/cotyledon
same,Accumulation of soluble carbohydrates in soybean seed coat,[3]; [9],16.30 μg/seed coat
same,Accumulation of soluble carbohydrates in soybean axis,[3]; [10],6.94 μg/axis
same,Accumulation of soluble carbohydrates in soybean cotyledon,[3]; [10],175.37 μg/cotyledon
same,Accumulation of soluble carbohydrates in soybean axis,[3]; [11],6.11 μg/axis
same,Accumulation of soluble carbohydrates in soybean cotyledon,[3]; [11],149.51 μg/cotyledon
same,Accumulation of soluble carbohydrates in soybean axis,[3]; [12],22.93 μg/axis
same,Accumulation of soluble carbohydrates in soybean cotyledon,[3]; [12],428.40 μg/cotyledon
same,Accumulation of soluble carbohydrates in soybean seed coat,[3]; [12],78.06 μg/seed coat
same,Accumulation of soluble carbohydrates in soybean axis,[3]; [13],20.86 μg/axis
same,Accumulation of soluble carbohydrates in soybean cotyledon,[3]; [13],431.73 μg/cotyledon
same,Accumulation of soluble carbohydrates in soybean seed coat,[3]; [13],73.32 μg/seed coat
same,Accumulation of soluble carbohydrates in soybean axis,[3]; [14],14.00 μg/axis
same,Accumulation of soluble carbohydrates in soybean cotyledon,[3]; [14],472.26 μg/cotyledon
same,Accumulation of soluble carbohydrates in soybean seed coat,[3]; [14],58.50 μg/seed coat
same,Accumulation of soluble carbohydrates in soybean axis,"[3]; 3 days transport of sucrose (1%) and D-pinitol (50 mM), after 4 days slow drying, Rep 2",20.05 μg/axis
